Experimental data published in PubChem BioAssay AID624291 (National Center for Advancing Translational Sciences (NCATS), 2012).
Out of some 350,000 compounds screened, about 220 (0.063%) were called active. Inconclusive results, whose numbers are uncertain, are shown with a selection of clear calls. Calls come from the whole dose curve; as a rule, active = well fitted activation curve with a large enough effect; inconclusive = small, poorly fitted or top-dose-only effect; inactive = no such curve, though single readings can be large or run the other way. Potencies of inconclusive entries are doubtful fits and often do not repeat.

experiment: qHTS for Activators of Integrin-Mediated Alleviation for Muscular Dystrophy; settings: alpha7betagal myoblasts, beta-gal FDG fluorescence, 48 h; activation: at 38.3 µM (top of the series); note: nearly all actives have a fitted effect of over 60% in size;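 for activation: 100% = response of the positive control SU9516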
In short: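 Alpha7betagal+/- myoblasts (passage 13) were plated 16-24 hr, then exposed to compounds (1:260 dilution of DMSO stock) for 48 hours at 37C. After MPER lysis, β-galactosidase reporter activity was read as FDG fluorescence (ex 480/em 540) after 30 minutes.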
Potency is the fitted concentration of half-maximal effect.

Structure (SMILES)	Potency	activation
Cc1ccc(Nc2nnc(SCC(=O)Nc3ccccc3[N+](=O)[O-])s2)cc1	inconclusive: 5.01 µM [activator, single point]	–
OCCC1CN(Cc2ccc3nonc3c2)CCN1Cc1ccsc1 (centres undefined)	–	inactive: 3.27%
CC(C(=O)Nc1ccccc1-c1ccccc1)N(C)Cc1nc2ccccc2c(=O)[nH]1 (centres undefined)	–	inactive: -3.43%
CC1CN(CCOCCSc2ccc(Cl)cc2)CC(C)O1 (centres undefined)	inconclusive: 10 µM [activator, single point]	–
N#CCC(=O)N/N=C/c1ccc(OS(=O)(=O)c2ccccc2)cc1	–	inactive: 6.48%
Nc1ccccc1Nc1c(F)c(F)nc(F)c1Cl	inconclusive: 5.01 µM [activator, single point]	–
CC(=O)Nc1ccc(NC(=O)CCCCCn2nnc3ccccc3c2=O)cc1	inconclusive: 5.01 µM [activator, single point]	–
CCN(CC)S(=O)(=O)c1ccc2c(c1)N(CC(=O)Nc1cccnc1Cl)C(=O)CO2	–	inactive: 3.5%
CC(C)C[C@@H](CN)NC(=O)c1nc[nH]c1C(=O)N[C@@H](Cc1ccccc1)C(=O)CNC[C@H](C)NC(=O)c1nc[nH]c1C(=O)N[C@@H](CC(C)C)C(=O)O	–	inactive: 13%
O=C(NC(=S)Nc1ccc(Cl)cc1)c1ccccc1	–	inactive: 0.282%
Cc1cc(C)c(S(C)(=O)=O)c(N(C)NC(=O)c2c(F)cccc2F)n1	inconclusive: 0.447 µM [activator, full curve, poor fit]	–
COc1ccc(N2CCN(C(CNC(=O)c3ccco3)c3ccco3)CC2)cc1 (centres undefined)	–	inactive: -2.44%
COc1ccc(CCNC(=O)c2ccccc2C(=O)NCCc2ccc(OC)cc2)cc1	inconclusive: 28.2 µM [activator, single point]	–
CCCn1c(SCC(=O)Nc2ccccc2OC)nnc1-c1ccco1	–	inactive: 0%
CCOC(=O)c1cnc2nc(SCc3ccccc3Cl)[nH]n2c1=O	inconclusive: 28.2 µM [activator, single point]	–
N#Cc1cc2c(nc1SCC(=O)NCc1ccc3c(c1)OCO3)CCCCC2	inconclusive: 22.4 µM [activator, partial curve, poor fit]	–
O=C(c1ccc(CN2CCc3ccccc3C2)cc1)N1CCN(c2ccc(F)cc2)CC1	–	inactive: -17.2%
COc1cccc(-c2cc(C(=O)Nc3cccnc3Cl)no2)c1	inconclusive: 5.01 µM [activator, single point]	–
Cn1ccnc1SCC(=O)Nc1ccc2c(c1)OCCO2	inconclusive: 28.2 µM [activator, single point]	–
C=CCN(CC=C)C(=O)c1cccc(OC2CCN(CC(C)(C)C)CC2)c1	inconclusive: 2.82 µM [activator, single point]	–
COc1cccc(CN2CCN(S(=O)(=O)c3ccc(NC(C)=O)cc3)CC2)c1OC	inconclusive: 1.12 µM [activator, partial curve, poor fit]	–
COc1ccc(N2CCN(S(=O)(=O)CCNC(=O)c3ccc(Br)o3)CC2)cc1	inconclusive: 5.01 µM [activator, single point]	–

Structure (SMILES)	Potency	activation
CCN(C(=O)COC(=O)CSc1ccc(C)cc1C)c1c(N)n(Cc2ccccc2)c(=O)[nH]c1=O	–	inactive: -17.3%
CC1CCC(NC(=O)C2CCN(c3nc4ccccc4s3)CC2)CC1 (centres undefined)	inconclusive: 28.2 µM [activator, single point]	–
Cc1cc(C)c(NC(=O)CSc2nnc(SCC(=O)Nc3c(C)cc(C)cc3C)n2N)c(C)c1	inconclusive: 3.98 µM [activator, partial curve, poor fit]	–
CCOc1cc2c(cc1OCC)C(c1ccc(F)cc1)NCC2 (centres undefined)	inconclusive: 0.708 µM [activator, partial curve, poor fit]	–
CCc1ccc(N(CC(=O)NCc2ccc(F)cc2)C(=O)c2csnn2)cc1	inconclusive: 1 µM [activator, partial curve, poor fit]	–
CCCn1c(SCC(=O)Nc2ccc(Cl)cc2F)nc(O)cc1=O	inconclusive: 15.8 µM [activator, single point]	–
COc1ccccc1N1C(=O)c2cccnc2C1=O	inconclusive: 3.55 µM [activator, single point]	–
C/C(=N\Nc1nccnc1Cl)c1c(F)c(F)c(F)c(F)c1F	–	inactive: -7.73%
CC(C)(C)NC(=O)CN(c1cccc([N+](=O)[O-])c1)S(=O)(=O)c1ccccc1	inconclusive: 5.01 µM [activator, single point]	–
CCC(C)Sc1nnc(NS(=O)(=O)Cc2ccccc2)s1 (centres undefined)	inconclusive: 2.82 µM [activator, single point]	–
O=C(N/N=C/c1cc(O)ccc1Br)c1cccnc1	inconclusive: 28.2 µM [activator, single point]	–
CCOc1cccc(/C=N/NC(=O)c2cccnc2)c1O	–	inconclusive: -6.7% [activator]
COc1ccc([N+](=O)[O-])cc1Nc1c2ccccc2nc2ccccc12	–	inactive: -55.3%
COc1ccc(Cl)cc1NC(=O)CN1CCc2ccccc2C1	–	inactive: -23.4%
O=C(CSc1nnc(-c2ccc(O)cc2)n1Cc1ccccc1)NNC(=O)c1ccc(Br)cc1	inconclusive: 5.01 µM [activator, partial curve, poor fit]	–
CC(C)CN(c1ccccc1)S(=O)(=O)c1nnc(NC(=O)c2ccco2)s1	–	inactive: 6.89%
CCCCC1CCC(C(=O)N(CCOC)c2c(N)n(CC(C)C)c(=O)[nH]c2=O)CC1 (centres undefined)	–	inactive: 9.11%
O=C(/C=C/c1ccc(Cl)c([N+](=O)[O-])c1)Nc1cccnc1	–	inactive: 15%
FC(F)(F)c1nnc2ccc(N3CCCCC3)nn12	inconclusive: 10 µM [activator, partial curve, poor fit]	–
CCCc1nn2c(=O)cc(CSCC(=O)Nc3ccc(OC)cc3)nc2s1	inconclusive: 28.2 µM [activator, single point]	–
Cc1ccccc1NC(=O)c1cc2c(C)nc3ccccc3c2o1	inconclusive: 31.6 µM [activator, partial curve, poor fit]	–
Cn1ncc([N+](=O)[O-])c1C(=O)Nc1ccc(C2CCCCC2)cc1	inconclusive: 3.16 µM [activator, single point]	–

Whole records, looked up by structure:
Cc1cc(C)c(NC(=O)CSc2nnc(SCC(=O)Nc3c(C)cc(C)cc3C)n2N)c(C)c1 is listed with Potency: inconclusive: 3.98 µM [activator, partial curve, poor fit]
CCc1ccc(N(CC(=O)NCc2ccc(F)cc2)C(=O)c2csnn2)cc1 is listed with Potency: inconclusive: 1 µM [activator, partial curve, poor fit]
